# The list is a part of this screen's results and no random one: it is rich in T/C values a quarter to a half above the control, in often repeated tests (any T/C) and in doses without a T/C. Further doses and runs are listed elsewhere. T/C: endpoint of the treated group in % of that of the vehicle group. Some entries give survivors of the animals treated and no T/C: the source holds a T/C of zero for them, seemingly a mark for toxic or unscored doses. Some survivor counts are full or nearly so, which does not show that the dose was tolerated: the source hardly ever lists a survival T/C far under the control, and the zero likely stands for such cases as well. Survivors were counted at the toxicity check, usually on the fifth day, unless a day is given; later deaths do not show. Schedule codes are those of the source, taken here to give the interval after Q, in days (D) or hours (H), and the number of doses after X. For survival time, this PubChem deposit counts one and a half times the control or more as active, and values a quarter to a half above the control carry no call in these data; other NCI protocols may use other cut-offs. Some T/C values are followed by the survivors on the day toxicity was checked, most often the fifth; where none is given, no animal had died by that day.
# Tested on: L1210 leukemia ip in BDF1 mice, survival T/C
# Experiment: NCI In Vivo Anticancer Drug Screen. Data for tumor model L1210 Leukemia (intraperitoneal) in B6D2F1 (BDF1) mice
# Conditions: T/C endpoint: mean survival time, higher T/C = longer survival
smiles,measurement,setting,value
CSc1nc(NC(=O)CCl)cc(NC(=O)CCl)n1,T/C,"dose: 50.0 mg/kg/injection, schedule: Q01DX005 (ip), vehicle: saline",132 % of control [5 of 6 alive]
same,survivor count,"dose: 100.0 mg/kg/injection, schedule: Q01DX005 (ip), vehicle: saline",4 of 6
same,survivor count,"dose: 200.0 mg/kg/injection, schedule: Q01DX005 (ip), vehicle: saline",0 of 6
O=C1C(=O)c2ccccc2C(O)=C1CC=C1CCCC1,survivor count,"dose: 400.0 mg/kg/injection, schedule: Q01DX001 (ip), vehicle: water",3 of 6
same,survivor count,"dose: 400.0 mg/kg/injection, schedule: Q01DX009 (ip), vehicle: water",0 of 6
N#C/C(=C\c1ccc(-c2ccccc2)cc1)c1ccc([N+](=O)[O-])cc1,survivor count,"dose: 50.0 mg/kg/injection, schedule: Q01DX009 (ip), vehicle: saline with Tween-80",6 of 6

# Source: PubChem BioAssay AID248 (DTP/NCI, 2004)
